Data published in patent publication US20170320950A1.
Positions count from the first letter of the chain named. Results are given in words; binding and its absence hold for the method and conditions named. Some entries that bind do so weakly or less than the wild type.

T1: human VISTA protein, deglycosylated with PNGase F (human) (UniProt Q9H7M9)
T1 sequence (chain, deglycosylated with PNGase F (six N-linked glycosylation sites)): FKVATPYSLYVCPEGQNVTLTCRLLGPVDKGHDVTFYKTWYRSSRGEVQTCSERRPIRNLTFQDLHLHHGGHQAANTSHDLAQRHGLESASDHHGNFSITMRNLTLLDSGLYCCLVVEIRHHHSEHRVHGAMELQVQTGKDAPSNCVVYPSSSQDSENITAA

T2: human VISTA on the surface of cells (human) (UniProt Q9H7M9)
T2 sequence: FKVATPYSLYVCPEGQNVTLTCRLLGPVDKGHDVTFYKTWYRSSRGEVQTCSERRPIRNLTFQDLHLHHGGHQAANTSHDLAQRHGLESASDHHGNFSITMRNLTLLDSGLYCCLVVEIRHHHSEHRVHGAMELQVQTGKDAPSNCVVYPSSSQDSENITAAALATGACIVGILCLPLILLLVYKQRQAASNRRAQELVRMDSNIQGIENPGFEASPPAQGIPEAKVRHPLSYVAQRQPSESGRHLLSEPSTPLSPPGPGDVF

B1: Fab of VSTB50 (Fab, V domains shown)
VH: QVQLVQSGSELKKPGASVKVSCKASGYTFTNYGLNWVRQAPGQGLEWMGWINPYTGEPTYADDFKGRFVFSLDTSVSTAYLQICSLKAEDTAVYYCAREGYGNYIFPYWGQGTLVTVSS
VL: DIVMTQTPLSLSVTPGQPASISCRASESVDTYANSLMHWYLQKPGQPPQLLIYRASNLESGVPDRFSGSGSGTDFTLKISRVEAEDVGVYYCQQTNEDPRTFGQGTKLEIKR
B2: Fab of VSTB95 (Fab, V domains shown)
VH: EVQLVESGGGLVQPGGSLRLSCAASGFTFRNYGMSWVRQAPGKGLEWVASIISGGSYTYYPDSVKGRFTISRDNAKNSLYLQMNSLRAEDTAVYYCARIYDHDGDYYAMDYWGQGTTVTVSS
VL: DIVMTQSPLSLPVTPGEPASISCRSSQSIVHSNGNTYLEWYLQKPGQSPQLLIYKVSNRFSGVPDRFSGSGSGTDFTLKISRVEAEDVGVYYCFQGSHVPWTFGQGTKLEIKR
B3: VSTB50 (antibody, human IgG1, kappa, V domains shown)
VH: B1 VH
VL: B1 VL
B4: VSTB60 (antibody, human IgG1, kappa, V domains shown)
VH: B1 VH with L34M, N35T, P53T, P58S, E99D, G100Y, N103I, I105V, F106S, P107A
VL: B1 VL with T31N, L36F, P47S, T95S, N96H, R100Y
B5: VSTB53 (antibody, human IgG1, kappa, V domains shown)
VH: QVQLVQSGAEVKKPGASVKVSCKASGYTFTHYTIHWVRQAPGQGLEWMGYIIPSSGYSEYNQKFKDRVTMTRDTSTSTVYMELSSLRSEDTAVYYCARGAYDDYYDYYAMDYWGQGTLVTVSS
VL: B2 VL with S28T, G96A
B6: VSTB95 (antibody, human IgG1, kappa, V domains shown)
VH: B2 VH
VL: B2 VL

target: T1, human VISTA protein, deglycosylated with PNGase F (human); assay: HDX-MS with Fab

binding | Binder
binds | B1
binds | B2

target: T2, human VISTA on the surface of cells (human); assay: FACS K562

binding | Binder
binds | B3
binds | B4
binds | B5
binds | B6

target: cynomolgus VISTA on the surface of K562 cells (cynomolgus); assay: FACS K562

binding | Binder
binds | B3
binds | B4
binds | B5
binds | B6

target: T2, human VISTA on the surface of cells (human); assay: flow cytometry on K562-G8 cells expressing human VISTA, antibody at 5 ug/ml, goat anti-human IgG1-PE, axis h-IgG-FC-PE Intensity

binding | Binder
binds | B3
binds | B4
binds | B5
binds | B6
